Patent US8207177B2, “Inhibitors of E1 activating enzymes” (Millennium Pharmaceuticals, Inc., priority 2006, dated 2012)
Some results were stated once for a whole list of compounds, not compound by compound.

Molecular target: T1, recombinant human NAE enzyme (Homo sapiens, UniProt Q8TBC4)
T1 construct: His (N); made in house; host or cells: Sf9 insect cells (baculovirus, Bac-to-Bac), purified on Ni-NTA
T1 sequence (Q8TBC4 1-463): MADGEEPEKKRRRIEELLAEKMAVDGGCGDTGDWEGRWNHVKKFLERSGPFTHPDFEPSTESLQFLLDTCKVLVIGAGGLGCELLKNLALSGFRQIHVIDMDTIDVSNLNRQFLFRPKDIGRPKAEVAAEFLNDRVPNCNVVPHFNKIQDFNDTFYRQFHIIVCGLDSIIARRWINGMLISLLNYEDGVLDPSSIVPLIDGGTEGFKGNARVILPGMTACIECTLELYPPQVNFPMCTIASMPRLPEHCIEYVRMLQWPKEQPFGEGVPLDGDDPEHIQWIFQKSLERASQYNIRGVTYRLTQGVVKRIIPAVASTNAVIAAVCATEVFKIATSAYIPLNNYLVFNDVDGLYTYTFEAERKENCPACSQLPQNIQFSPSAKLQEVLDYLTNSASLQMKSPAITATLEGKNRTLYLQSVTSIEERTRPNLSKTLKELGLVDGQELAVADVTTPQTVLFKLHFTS
T1 sequence (Q13564 1-534 partner): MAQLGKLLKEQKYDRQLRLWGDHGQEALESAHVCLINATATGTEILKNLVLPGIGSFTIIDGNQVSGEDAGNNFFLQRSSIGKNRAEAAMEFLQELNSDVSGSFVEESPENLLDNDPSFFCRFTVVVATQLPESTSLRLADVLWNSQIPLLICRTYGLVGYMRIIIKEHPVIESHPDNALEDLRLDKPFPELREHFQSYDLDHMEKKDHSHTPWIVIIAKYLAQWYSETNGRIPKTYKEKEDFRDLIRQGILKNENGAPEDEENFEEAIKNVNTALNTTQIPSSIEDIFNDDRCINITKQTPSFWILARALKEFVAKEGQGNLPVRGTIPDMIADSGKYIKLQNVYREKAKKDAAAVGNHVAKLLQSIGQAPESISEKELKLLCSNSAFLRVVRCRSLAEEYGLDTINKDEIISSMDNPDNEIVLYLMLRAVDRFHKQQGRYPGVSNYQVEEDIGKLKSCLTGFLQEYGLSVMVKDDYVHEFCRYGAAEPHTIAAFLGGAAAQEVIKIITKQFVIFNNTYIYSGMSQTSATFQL
Assay: Nedd8-Activating Enzyme (NAE) HTRF Assay
Format: biochemical
Settings: threshold statement: less than or equal to 10 μM; 20 μM ATP, 90 minutes at 24° C.
Outline: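 Sf9-expressed NAEα/His-NAEβ complex (0.28 nM) with 0.075 μM Nedd8-Flag, 0.01 μM Ubc12-GST, 20 μM ATP in 50 mM HEPES pH 7.5, 5 mM MgCl2, 250 μM GSH, 0.05% BSA; 90 min at 24 °C. EDTA stop, then Eu-cryptate anti-FLAG/XL-APC anti-GST detection for 3 h at 24 °C, HTRF read-out.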

IC50, ≤ 10 µM:
CO[C@H]1Cc2ccccc2[C@H]1Nc1ncnc2c1c(F)cn2[C@@H]1C[C@@H](COS(N)(=O)=O)[C@@H](O)C1 [Compound I-69, [(1S,2S,4R)-4-(5-fluoro-4-{[(1R,2S)-2-methoxy-2,3-dihydro-1H-inden-1-yl]amino}-7H-pyrrolo[2,3-d]pyrimidin-7-yl)-2-hydroxycyclopentyl]methyl sulfamate]
CCO[C@H]1Cc2ccccc2[C@H]1Nc1ncnc2c1ccn2[C@@H]1C[C@@H](COS(N)(=O)=O)[C@@H](O)C1 [Compound I-70, [(1S,2S,4R)-4-(4-{[(1R,2S)-2-ethoxy-2,3-dihydro-1H-inden-1-yl]amino}-7H-pyrrolo[2,3-d]pyrimidin-7-yl)-2-hydroxycyclopentyl]methyl sulfamate]
NS(=O)(=O)OC[C@@H]1C[C@@H](n2ccc3c(N[C@@H]4c5ccccc5C[C@@H]4O)ncnc32)C[C@@H]1O [Compound I-71, [(1S,2S,4R)-2-hydroxy-4-(4-{[(1R,2S)-2-hydroxy-2,3-dihydro-1H-inden-1-yl]amino}-7H-pyrrolo[2,3-d]pyrimidin-7-yl)cyclopentyl]methyl sulfamate]
CO[C@@H]1Cc2ccccc2[C@H]1Nc1ncnc2c1ccn2[C@@H]1C[C@@H](COS(N)(=O)=O)[C@@H](O)C1 [Compound I-72, [(1S,2S,4R)-2-hydroxy-4-(4-{[(1R,2R)-2-methoxy-2,3-dihydro-1H-inden-1-yl]amino}-7H-pyrrolo[2,3-d]pyrimidin-7-yl)cyclopentyl]methyl sulfamate]
NS(=O)(=O)/C=C/[C@@H]1C[C@@H](n2ccc3c(N[C@H]4CCc5ccccc54)ncnc32)C[C@@H]1O [Compound I-73, (E)-2-((1S,2S,4R)-4-{4-[(1S)-2,3-dihydro-1H-inden-1-ylamino]-7H-pyrrolo[2,3-d]pyrimidin-7-yl}-2-hydroxycyclopentyl)ethylenesulfonamide]
CO[C@H]1Cc2ccccc2[C@H]1Nc1ncnc2c1ccn2[C@@H]1C[C@@H](CNS(N)(=O)=O)[C@@H](O)C1 [Compound I-74, N-{[(1S,2S,4R)-2-hydroxy-4-(4-{[(1R,2S)-2-methoxy-2,3-dihydro-1H-inden-1-yl]amino}-7H-pyrrolo[2,3-d]pyrimidin-7-yl)cyclopentyl]methyl}sulfamide]
CN(C[C@@H]1C[C@@H](n2ccc3c(N[C@H]4CCc5ccccc54)ncnc32)C[C@@H]1O)S(N)(=O)=O [Compound I-75, N-[((1S,2S,4R)-4-{4-[(1S)-2,3-dihydro-1H-inden-1-ylamino]-7H-pyrrolo[2,3-d]pyrimidin-7-yl}-2-hydroxycyclopentyl)methyl]-N-methylsulfamide]
NS(=O)(=O)OCC[C@@H]1C[C@@H](n2ccc3c(N[C@H]4CCc5ccccc54)ncnc32)C[C@@H]1O [Compound I-76, 2-((1S,2S,4R)-4-{4-[(1S)-2,3-dihydro-1H-inden-1-ylamino]-7H-pyrrolo[2,3-d]pyrimidin-7-yl}-2-hydroxycyclopentyl)ethyl sulfamate]
COC[C@@H]1Cc2ccccc2[C@@H]1Nc1ncnc2c1ccn2[C@@H]1C[C@@H](COS(N)(=O)=O)[C@@H](O)C1 [Compound I-79, [(1S,2S,4R)-2-hydroxy-4-(4-{[(1R,2R)-2-(methoxymethyl)-2,3-dihydro-1H-inden-1-yl]amino}-7H-pyrrolo[2,3-d]pyrimidin-7-yl)cyclopentyl]methyl sulfamate]
C[C@@H]1Cc2ccccc2[C@@H]1Nc1ncnc2c1ccn2[C@@H]1C[C@@H](COS(N)(=O)=O)[C@@H](O)C1 [Compound I-81, [(1S,2S,4R)-2-hydroxy-4-(4-{[(1R,2R)-2-methyl-2,3-dihydro-1H-inden-1-yl]amino)-7H-pyrrolo[2,3-d]pyrimidin-7-yl)cyclopentyl]methyl sulfamate]
C[C@H]1Cc2ccccc2[C@H]1Nc1ncnc2c1ccn2[C@@H]1C[C@@H](COS(N)(=O)=O)[C@@H](O)C1 [Compound I-82, [(1S,2S,4R)-2-hydroxy-4-(4-{[(1S,2S)-2-methyl-2,3-dihydro-1H-inden-1-yl]amino}-7H-pyrrolo[2,3-d]pyrimidin-7-yl)cyclopentyl]methyl sulfamate]
CC[C@@H]1Cc2ccccc2[C@@H]1Nc1ncnc2c1ccn2[C@@H]1C[C@@H](COS(N)(=O)=O)[C@@H](O)C1 [Compound I-83, [(1S,2S,4R)-4-(4-{[(1R,2R)-2-ethyl-2,3-dihydro-1H-inden-1-yl]amino}-7H-pyrrolo[2,3-d]pyrimidin-7-yl)-2-hydroxycyclopentyl]methyl sulfamate]
CC[C@H]1Cc2ccccc2[C@H]1Nc1ncnc2c1ccn2[C@@H]1C[C@@H](COS(N)(=O)=O)[C@@H](O)C1 [Compound I-84, [(1S,2S,4R)-4-(4-{[(1S,2S)-2-ethyl-2,3-dihydro-1H-inden-1-yl]amino}-7H-pyrrolo[2,3-d]pyrimidin-7-yl)-2-hydroxycyclopentyl]methyl sulfamate]
CO[C@H]1CCc2ccccc2[C@H]1Nc1ncnc2c1ccn2[C@@H]1C[C@@H](COS(N)(=O)=O)[C@@H](O)C1 [Compound I-85, [(1S,2S,4R)-2-hydroxy-4-(4-{[(1R,2S)-2-methoxy-1,2,3,4-tetrahydronaphthalen-1-yl]amino}-7H-pyrrolo[2,3-d]pyrimidin-7-yl)cyclopentyl]methyl sulfamate]
